Data published in publication PMC4023949.
These are yes or no findings as the source states them, for the method shown. In cells and extracts the contact can be indirect. Some binding calls cover weakened binding; strength is not graded here. Each block holds one substance with its values, some of them ahead of it.

Amino acid sequences for entries named in this document (tags omitted).
UniProt P42232: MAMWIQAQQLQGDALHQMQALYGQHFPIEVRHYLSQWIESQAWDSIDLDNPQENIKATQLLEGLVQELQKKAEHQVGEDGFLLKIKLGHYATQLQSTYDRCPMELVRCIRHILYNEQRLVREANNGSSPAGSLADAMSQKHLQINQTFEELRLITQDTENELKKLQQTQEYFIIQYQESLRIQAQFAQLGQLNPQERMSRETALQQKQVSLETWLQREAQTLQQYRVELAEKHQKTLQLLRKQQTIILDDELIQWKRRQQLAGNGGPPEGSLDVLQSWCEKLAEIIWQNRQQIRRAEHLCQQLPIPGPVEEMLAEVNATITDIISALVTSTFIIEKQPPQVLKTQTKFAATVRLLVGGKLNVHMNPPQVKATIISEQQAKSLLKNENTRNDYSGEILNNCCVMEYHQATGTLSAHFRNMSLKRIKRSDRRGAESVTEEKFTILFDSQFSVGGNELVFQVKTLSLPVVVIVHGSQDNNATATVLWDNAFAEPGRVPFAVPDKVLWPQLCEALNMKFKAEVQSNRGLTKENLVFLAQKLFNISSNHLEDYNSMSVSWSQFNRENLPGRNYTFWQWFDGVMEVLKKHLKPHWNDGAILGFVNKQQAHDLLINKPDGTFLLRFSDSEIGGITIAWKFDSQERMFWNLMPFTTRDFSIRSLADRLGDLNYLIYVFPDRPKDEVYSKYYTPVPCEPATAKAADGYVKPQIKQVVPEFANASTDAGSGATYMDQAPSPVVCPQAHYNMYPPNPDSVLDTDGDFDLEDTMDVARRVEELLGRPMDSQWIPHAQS
UniProt P42230: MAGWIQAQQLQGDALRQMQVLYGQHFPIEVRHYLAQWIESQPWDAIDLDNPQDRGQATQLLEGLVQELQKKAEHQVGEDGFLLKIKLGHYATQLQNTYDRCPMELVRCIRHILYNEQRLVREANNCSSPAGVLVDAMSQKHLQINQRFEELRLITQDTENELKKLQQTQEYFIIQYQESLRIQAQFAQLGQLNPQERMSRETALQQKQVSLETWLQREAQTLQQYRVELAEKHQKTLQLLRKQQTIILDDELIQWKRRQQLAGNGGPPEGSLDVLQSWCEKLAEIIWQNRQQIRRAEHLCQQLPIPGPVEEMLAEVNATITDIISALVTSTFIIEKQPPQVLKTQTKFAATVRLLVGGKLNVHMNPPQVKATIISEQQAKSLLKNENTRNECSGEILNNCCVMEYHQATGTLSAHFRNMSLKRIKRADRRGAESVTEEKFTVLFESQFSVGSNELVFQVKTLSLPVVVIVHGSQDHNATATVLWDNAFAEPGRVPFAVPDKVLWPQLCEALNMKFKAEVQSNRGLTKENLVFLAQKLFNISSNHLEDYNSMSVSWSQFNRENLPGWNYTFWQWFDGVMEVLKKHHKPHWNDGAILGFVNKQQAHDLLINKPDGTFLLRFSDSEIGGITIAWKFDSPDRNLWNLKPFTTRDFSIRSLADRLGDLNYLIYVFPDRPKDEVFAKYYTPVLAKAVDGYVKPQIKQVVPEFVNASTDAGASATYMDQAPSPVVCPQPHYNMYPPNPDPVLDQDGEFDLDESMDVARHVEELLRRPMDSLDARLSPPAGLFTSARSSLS

Key:
[1] = target: STAT5B (endogenous, TonB cells) (mouse (endogenous in TonB)) (UniProt P42232); assay: co-IP; endogenous proteins from TonB whole cell lysates; RIPA buffer with inhibitors, isoform-specific anti-STAT5A or anti-STAT5B antibody and Protein A/G Plus-Agarose overnight; western blot for the other isoform and for phosphotyrosine; cells cultured with IL-3, BCR-ABL (doxycycline), IL-3 plus BCR-ABL, or re-stimulated with IL-3 for 30 minutes after starvation
[2] = target: STAT5A (endogenous, TonB cells) (mouse (endogenous in TonB)) (UniProt P42230); assay: condition: only cells starved of IL-3 overnight, BCR-ABL not induced; co-IP; as a1, but cells starved overnight by withdrawal of IL-3 (Starvation), BCR-ABL not induced
[3] = target: STAT5A (endogenous, TonB cells) (mouse (endogenous in TonB)) (UniProt P42230); assay: co-IP; endogenous proteins from TonB whole cell lysates; RIPA buffer with inhibitors, isoform-specific anti-STAT5A or anti-STAT5B antibody and Protein A/G Plus-Agarose overnight; western blot for the other isoform and for phosphotyrosine; cells cultured with IL-3, BCR-ABL (doxycycline), IL-3 plus BCR-ABL, or re-stimulated with IL-3 for 30 minutes after starvation
[4] = target: epitope-tagged STAT5A (murine) (UniProt P42230); assay: co-IP; epitope-tagged STAT5A and STAT5B variants over-expressed in TonB cells (Figure S4A); details in the supplement, not shown
[5] = target: epitope-tagged STAT5B (murine) (UniProt P42232); assay: as above

- binding [1]: binds
Substance: STAT5A (endogenous, TonB cells) (from UniProt P42230 1-793)

- binding [2]: no binding
- binding [3]: binds
Substance: STAT5B (endogenous, TonB cells) (from UniProt P42232 1-786)

- binding [4]: binds
Substance: epitope-tagged STAT5A (from UniProt P42230 1-793)

- binding [5]: binds
Substance: epitope-tagged STAT5B (from UniProt P42232 1-786)
